# PubChem BioAssay AID1224830 | NIAID – 2016
# Aim: 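Regulators of TLR4 signalling towards TNF-alpha in macrophage-like cells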 (primary screen)
# Cells: human THP-1 monocytic leukaemia cells, TNF dual-luciferase reporter clone, PMA-differentiated to macrophage-like cells
# Knock-down reagent: siRNA pool against human genes, 50 nM
# Timing: LPS for 4 h, given about 3 days after siRNA transfection
# Treatment: bacterial LPS (TLR4 ligand), 10 ng/ml
# Measured: 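TNF firefly reporter luminescence divided by renilla, normalised to the plate median, then turned into a robust z-score for each replicate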
# Reading the numbers: TNF reporter robust z-score: higher = stronger TNF reporter response to LPS
# Rule for the call: 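a well is active when its z-score exceeds 2.8 or falls below -1.5; control wells carry no call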
# The whole screen tested about 18,000 reagents; shown is a random part of them. About 2,900 of all reagents (16%) were called active. 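Calls are made per well; low scores hint the gene aids the LPS response, high scores that it dampens it.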 Repeated entries: four replicate wells of each siRNA pool.
TNF reporter robust z-score,Call,gene symbol
-0.66,inactive,YEATS4
-0.04,inactive,YEATS4
-0.64,inactive,YEATS4
-1.11,inactive,YEATS4
-0.32,inactive,KLHL20
1.2,inactive,KLHL20
0,inactive,KLHL20
0.83,inactive,KLHL20
-1.26,inactive,RNF139
-0.48,inactive,RNF139
-1.28,inactive,RNF139
0.08,inactive,RNF139
-1.3,inactive,ID4
0.62,inactive,ID4
-0.68,inactive,ID4
-1.49,inactive,ID4
0.53,inactive,QRICH2
1.79,inactive,QRICH2
0.14,inactive,QRICH2
-0.44,inactive,QRICH2
-0.99,inactive,SCUBE1
-1.18,inactive,SCUBE1
-0.6,inactive,SCUBE1
-1.03,inactive,SCUBE1
0.11,inactive,RRP15
1.3,inactive,RRP15
0.8,inactive,RRP15
1.48,inactive,RRP15
-0.15,inactive,CENPBD1P
-0.73,inactive,CENPBD1P
0.25,inactive,CENPBD1P
-0.54,inactive,CENPBD1P
-0.3,inactive,UBE2S
0.64,inactive,UBE2S
0.74,inactive,UBE2S
0.09,inactive,UBE2S
-1.43,inactive,LRRC8D
-2.18,active,LRRC8D
-2.09,active,LRRC8D
-0.25,inactive,EMILIN3
0.35,inactive,EMILIN3
0.84,inactive,EMILIN3
-0.02,inactive,EMILIN3
1.89,inactive,PDE11A
1.44,inactive,PDE11A
0.31,inactive,PDE11A
-0.02,inactive,PDE11A
-1.37,inactive,ITPA
-1.22,inactive,ITPA
-1.91,active,ITPA
-1.46,inactive,ITPA
-0.19,inactive,SHANK2
0.35,inactive,SHANK2
0.56,inactive,SHANK2
1.21,inactive,SHANK2
0.33,inactive,STOML2
1.03,inactive,STOML2
-0.09,inactive,STOML2
0.61,inactive,STOML2
-0.78,inactive,SLC2A13
-0.42,inactive,SLC2A13
-0.68,inactive,SLC2A13
-0.11,inactive,SLC2A13
2.24,inactive,PPHLN1
1.89,inactive,PPHLN1
2.14,inactive,PPHLN1
3.19,active,PPHLN1

Hits (from the list above):
TNF reporter robust z-score,Call,gene symbol
-2.18,active,LRRC8D
-2.09,active,LRRC8D
-1.91,active,ITPA
3.19,active,PPHLN1

More entries follow.
TNF reporter robust z-score,Call,gene symbol
-0.82,inactive,FUCA1
-0.6,inactive,FUCA1
0.28,inactive,FUCA1
-0.13,inactive,FUCA1
-0.02,inactive,PSIP1
-0.39,inactive,PSIP1
-0.13,inactive,PSIP1
0.1,inactive,PSIP1
0.09,inactive,HINT2
0.31,inactive,HINT2
0.14,inactive,HINT2
0.9,inactive,HINT2
-0.96,inactive,TSPAN18
-0.33,inactive,TSPAN18
-0.75,inactive,TSPAN18
-0.32,inactive,LGALS8
0.88,inactive,LGALS8
-0.25,inactive,LGALS8
-0.39,inactive,LGALS8
3.35,active,CCDC186
0.62,inactive,CCDC186
0.85,inactive,CCDC186
0.02,inactive,CCDC186
-0.15,inactive,FIBIN
-0.82,inactive,FIBIN
0.5,inactive,FIBIN
1.2,inactive,FIBIN
1.55,inactive,ERI2
2.49,inactive,ERI2
1.53,inactive,ERI2
2.26,inactive,ERI2
-0.26,inactive,CCS
-0.76,inactive,CCS
-1.43,inactive,CCS
-1.27,inactive,CCS
-0.15,inactive,ZSWIM2
0.37,inactive,ZSWIM2
1.45,inactive,ZSWIM2
-0.11,inactive,ZSWIM2
1.59,inactive,KCTD18
0.33,inactive,KCTD18
-0.81,inactive,KCTD18
-0.44,inactive,KCTD18
2.71,inactive,ADRA2C
0.91,inactive,ADRA2C
-0.38,inactive,ADRA2C
0.34,inactive,ADRA2C
0.18,inactive,ARL6IP4
0.82,inactive,ARL6IP4
0.41,inactive,ARL6IP4
-0.25,inactive,ARL6IP4
-0.08,inactive,ACTR3
0,inactive,ACTR3
0.49,inactive,ACTR3
0.03,inactive,ACTR3
-0.59,inactive,PIGQ
0.51,inactive,PIGQ
0.24,inactive,PIGQ
-0.47,inactive,PIGQ
3.33,active,VGLL3
2.42,inactive,VGLL3
2.57,inactive,VGLL3
3.27,active,VGLL3
-0.19,inactive,ARID5B
0.5,inactive,ARID5B
1.49,inactive,ARID5B
1.1,inactive,ARID5B
0.55,inactive,BRD7
-0.25,inactive,BRD7
0.13,inactive,BRD7
0.47,inactive,BRD7
-0.16,inactive,ORC2
0.74,inactive,ORC2
0.42,inactive,ORC2
1.51,inactive,ORC2
